# Data taken from the supplement of paper PMC10338343.
# ± gives the standard deviation. The list shows a part of the results, in another mix than the full data. Many of these values have a large error. Some of the results follow.
# Test system: MIWI (PIWIL1) piRISC loaded with L1MC piRNA (30 nt)
# Experiment: pre-steady-state target cleavage rate (min^-1); higher = faster piRNA-guided slicing of the target
# Conditions: guide: L1MC piRNA 5'p-UAACUAAAUACUAUGCAAGCUGUAGGUCCU; auxiliary factor: none (no GTSF1)
# In short: (§1)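 Cleave-'n-Seq reactions paired 0.1 nM transcribed, DNA-blocked target RNA library with 1 nM active affinity-purified piRISC holding one synthetic guide, plus or minus 500 nM GTSF1 partner protein, in HEPES–potassium acetate buffer at 33 °C for 0–8 or 0–960 min. After sequencing of uncleaved targets and normalisation to depth and weakly complementary targets, the pre-steady-state cleavage rate was taken from a burst-and-steady-state fit. Three trials were pooled, and k3 was capped at 0.0001 min^-1.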
row,Sequence,pre-steady-state target cleavage rate
1,UCCUGGAUCAGCUUGCAUUCAAUUUAGUUA,0.00168 ± 0.004
2,UCCUGCUACAGCUUGCAUAGAUUUUACAAA,0.000246 ± 0.017
3,UCCUGCUACAGCAACCAUAGUAUUUAGUUA,0.000985 ± 0.007
4,UCCUCCUACAGCUUGCAUAGUAAAAAGUAA,0.000361 ± 0.0086
5,UCCUGGAUGUCGUUGCAUAGUAUCUAGUUA,0.0022 ± 0.0048
6,UCCUGGAUGUGCUUGCAUUGUAAUUAGUUA,0.00257 ± 0.0029
7,UCCUGGAUGUCGAUGCUUAGUAUUUAGAUA,0.00058 ± 0.0096
8,UCCUGGAUGUCGAUGCAUGUAUUUAGUUA,0.000966 ± 0.0055
9,UCCUGCUACAGCAACCAUAGUAUUUAGUAA,0.000403 ± 0.016
10,UCCUGGAACAGCUUGCAUAGUAAAUAGAAA,0.00124 ± 0.0045
11,UCCUGGAUGUCGAUGCUUAGUAUUUAGUAA,0.000699 ± 0.0092
12,UCCUGGAUGUGGUUGCAAAGUAUUUAGUUA,0.00333 ± 0.0034
13,UCCUGGAACAGCUUCGAUAGUAUUUAGAAA,0.000419 ± 0.0077
14,UCCUGGAUGUCGUUGCAUUGUAUUUAGUAA,0.000255 ± 0.026
15,UCCUGGAUGUCGUUGCAUGAGUAUUUAGUUA,0.000593 ± 0.016
16,UCCUGGAACAGCUUGCAUAGUAAAAAGUUA,0.00236 ± 0.003

# Test system: EfPiwi piRISC loaded with L1MC piRNA (26 nt)
# Experiment: pre-steady-state target cleavage rate (min^-1); guide: L1MC piRNA 5'p-UAACUAAAUACUAUGCAAGCUGUAGG; MIWI and MILI are mouse PIWI proteins and EfPiwi is from a freshwater sponge; tags in brackets are library labels; higher = faster piRNA-guided slicing of the target
# Conditions: auxiliary factor: 500 nM Ephydatia muelleri Gtsf1
# In short: as §1
row,Sequence,pre-steady-state target cleavage rate
1,UCCUGGAUCAGCUUGCUAUGUAUUUUCAAA,0.000517 ± 0.01
2,UCCUGGAUGUCCUUGGAUAGUAUUUAGAUA,0.000686 ± 0.0092
3,UCCUGCUACUCGUUGCAUAGUAUUUUCAAA,0.00174 ± 0.0045
4,UCCUGGAACAGCUUGCUAUAGUAUUUAGUUA,0.00682 ± 0.0023
5,UCCUGGAUGUCCAACCAUAGUAUUUAGUUA,0.000454 ± 0.0085
6,UCCUGGAUGUCCAUGCAUAGUAUUAAGUUA,0.00186 ± 0.006
7,UCCUGGAUGUCGUUGCAUUGUAAUUAGUUA,0.000125 ± 0.046
8,UCCUGGAUCAGCUUGCUAAGUAUUUACAAA,0.000301 ± 0.013
9,UCCUGGAUGAGCUUGCAUAGUUAUUAGUAA,0.00327 ± 0.0044
10,UCCUGCUACAGCUUGCAUUCUAUUUUCAAA,0.000338 ± 0.0092
11,UCCUGGAACAGCUUGCAUCAGUAUUUAGUUA,0.00207 ± 0.0035
12,UCCUGGAUGUCCAUGCAUAGAAUUUAGUUA,0.000293 ± 0.014
13,UCCUGGAUGAGCUUCCAUUGUAUUUAGUUA,0.00132 ± 0.0031
14,UCCUGGAUGUCCUUGCAUACGUAUUUAGUUA,0.00141 ± 0.004
15,UCCUCCUACAGCUUGACAUAGUAUUUAGUUA,0.016 ± 0.0056
16,UCCUGGAUCAGCUUGCAUUCAAUUUAGUUA,0.00032 ± 0.0094
17,UCCUGGAUGUGCUUGCAUUAGUAUUUAGUUA,0.00132 ± 0.0054

row,Sequence,pre-steady-state target cleavage rate
1,UCCUGCUACAGCAACCAUAGUAUUUAGUUA,0.000802 ± 0.0057
2,UCCUGGAUGUCGAUGGAUAGUUUUUAGUUA,0.000121 ± 0.03
3,UCCUCCUACAGCUUGCAUAGUAAAAAGUAA,0.00344 ± 0.0029
4,UCCUGGAUGUCGUUGCAUAGUAUCUAGUUA,0.00252 ± 0.0039
5,UCCUGGAUGUGCUUGCAUUGUAAUUAGUUA,0.00224 ± 0.0039
6,UCCUGGAUGUCGAUGCUUAGUAUUUAGAUA,0.000558 ± 0.0068
7,UCCUGGAUGUGGUUCCAUAGUAUUUAGUUA,0.000469 ± 0.0092
8,UCCUGGAUGUCGAUGCAUGUAUUUAGUUA,0.00109 ± 0.0065
9,UCCUGCUACAGCAACCAUAGUAUUUAGUAA,0.0014 ± 0.0059
10,UCCUGGAACAGCUUGCAUAGUAAAUAGAAA,0.00337 ± 0.0028
11,UCCUGGAUGUCGAUGCUUAGUAUUUAGUAA,0.000305 ± 0.015
12,UCCUGGAUGUGGUUGCAAAGUAUUUAGUUA,0.0018 ± 0.0051
13,UCCUGGAACAGCUUCGAUAGUAUUUAGAAA,0.00315 ± 0.0039
14,UCCUGGAUGUCGUUGCAUUGUAUUUAGUAA,0.000211 ± 0.018
15,UCCUGGAUGAGCUUCGUUAGUAUUUAGUAA,0.000158 ± 0.025
16,UCCUGGAUGUCGUUGCAUGAGUAUUUAGUUA,0.000321 ± 0.01
